Assay results taken from patent US12685740B2, “Compositions for the elimination of senescent cells” (Universität für Bodenkultur Wien, priority 2018, dated 2026).
At least one compound was matched to its structure with a doubt left.

Test system: Doxorubicin-induced premature senescent HDF161
Assay: Alamar blue viability assay, doxorubicin-induced SIPS vs quiescent HDF161 (FIG. 6)
Format: cell-based, human
Settings: single treatment
Experimental: Cells were seeded at a cell density of 2,800 cells/cm^2 one day prior to the treatment. The cells were treated nine times over a period of 11 days with 60-80 μM H2O2 supplemented to the media for one hour followed by a media change. Alternatively, depending on cell type cells were seeded at a cell density of 3,500-7,000 cells/cm^2 one day prior to the treatment and SIPS was induced with 100-200 nM doxorubicin (D1515, Sigma-Aldrich) supplemented to the medium for 6 days. Induction of senescence was verified by SA-β-gal staining, p21 expression, and absence of BrdU incorporation. AnnexinV/PI staining was performed to assure that the treatment was non-lethal and SIPS HDFs were cultured and monitored for over 50 days to assure that the induced growth arrest was permanent (Terlecki-Zaniewicz et al. 2018).
Alamar blue (DAL1100, Thermo Fisher Scientific) assay was performed according to the manufacturer's instructions. Cells were treated with the respective substances for 9 days with a media change on day 0, 3 and 6. The control was treated with the respective concentration of the solvent (DMSO).
Premature senescence was induced in adult and foreskin HDFs with doxorubicin, which was supplemented to the growth media for 6 days. […] Subsequently, the viability was assessed using an alamar blue assay (Thermo Fisher Scientific).

`Cc1ccc(-c2cc(C(F)(F)F)nn2-c2ccc(S(N)(=O)=O)cc2)cc1` [Celecoxib] was tested, and the senolytic effect was “did not show any senolytic effect”.
